Results from PMC12549899 (Nature Communications, 2025).
Where “and” joins values, the source holds several entries; their conditions need not be identical. Equal values may be shown once.

Target: T1, DrOTOP1 (Danio rerio, UniProt Q7ZWK8)
T1 construct: A previously generated codon-optimized full-length DrOTOP1[8]; (UniProt: Q7ZWK8) construct; expressed in transfected cells; host or cells: HEK-293 (CRL-1573, ATCC)
T1 sequence (Q7ZWK8 1-586): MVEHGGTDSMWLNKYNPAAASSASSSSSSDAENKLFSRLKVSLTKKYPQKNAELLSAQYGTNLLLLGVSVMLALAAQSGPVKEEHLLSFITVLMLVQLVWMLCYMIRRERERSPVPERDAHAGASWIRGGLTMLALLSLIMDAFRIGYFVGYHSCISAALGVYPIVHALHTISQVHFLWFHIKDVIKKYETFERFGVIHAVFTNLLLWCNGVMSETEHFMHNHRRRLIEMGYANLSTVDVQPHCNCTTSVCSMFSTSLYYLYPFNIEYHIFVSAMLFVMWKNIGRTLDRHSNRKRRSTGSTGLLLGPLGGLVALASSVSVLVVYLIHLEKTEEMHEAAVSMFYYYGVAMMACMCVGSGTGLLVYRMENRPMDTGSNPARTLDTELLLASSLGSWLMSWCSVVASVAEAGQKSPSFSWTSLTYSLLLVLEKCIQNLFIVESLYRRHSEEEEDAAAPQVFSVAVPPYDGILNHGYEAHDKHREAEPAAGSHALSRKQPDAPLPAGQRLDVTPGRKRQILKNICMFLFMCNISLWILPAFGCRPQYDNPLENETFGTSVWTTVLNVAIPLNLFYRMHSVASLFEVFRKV
Assay: Whole-cell patch-clamp, inhibition of acid-evoked currents, WT DrOTOP1 expressed in HEK-293 cells
Type: cell-based, zebrafish (Danio rerio)
Conditions: 200 µM compound; HEK-293 cells expressing DrOTOP1; Vm -80 mV; values of single cells, FDA 1-3 = FDA-approved drugs; listed as FDA 3, 200 µM
Text: The 50 molecules identified were individually tested by whole-cell patch-clamp electrophysiology for effects on DrOTOP1 expressed in human embryonic kidney (HEK)−293 cells. […] This approach enabled us to observe the on- and off-responses of each compound. To quantify the effect of each compound, we compared the current magnitude during compound application immediately before wash-off, to the peak inward current following its removal (Supplementary Fig. 2A).
HEK-293 cells (CRL-1573, ATCC) were cultured in DMEM (Thermofisher 11995073) containing 10% fetal bovine serum (Life Technology 16000044) and Penicillin-Streptomycin (100 I.U./mL) and (100 µg/mL), respectively. […]
Whole-cell patch-clamp recording was performed as previously described[6],[22],[25]. Recordings were made with an Axopatch 200B amplifier, digitized with a Digidata 1322a 16-bit data acquisition system, acquired with pClamp 8.2 and analyzed with Clampfit 10 (Molecular Devices). […]
All data are presented as mean ± SEM unless otherwise noted, and each data point represents an independent replicant. Inhibition of compounds was quantified as ((I2peak-I1)/(I2peak))*100, where I1 is the current immediately before wash-off and I2peak is the maximum recovered current (Supplementary Fig. 2). Hill coefficients were determined by the following equation: Y = Bmax*X^h/(Kd^h + X^h).

In the case of CN1c2ccccc2C(NCCCCCCC(=O)O)c2ccc(Cl)cc2S1(=O)=O (stereo not shown) [tianeptine, reference compound], the “Inhibition of pH 5.5-induced currents, screen 2” value is reported as 18.5311% and 8.87% and 13.0177% and 10.1695%.
